For 3 substances, binding results are on record in article PMC3174942.

Chains of the proteins cited; added tags and fusions are not shown. Lines headed by an entry give the natural chain unless they say otherwise; changes in a name come on top.
UniProt P19793: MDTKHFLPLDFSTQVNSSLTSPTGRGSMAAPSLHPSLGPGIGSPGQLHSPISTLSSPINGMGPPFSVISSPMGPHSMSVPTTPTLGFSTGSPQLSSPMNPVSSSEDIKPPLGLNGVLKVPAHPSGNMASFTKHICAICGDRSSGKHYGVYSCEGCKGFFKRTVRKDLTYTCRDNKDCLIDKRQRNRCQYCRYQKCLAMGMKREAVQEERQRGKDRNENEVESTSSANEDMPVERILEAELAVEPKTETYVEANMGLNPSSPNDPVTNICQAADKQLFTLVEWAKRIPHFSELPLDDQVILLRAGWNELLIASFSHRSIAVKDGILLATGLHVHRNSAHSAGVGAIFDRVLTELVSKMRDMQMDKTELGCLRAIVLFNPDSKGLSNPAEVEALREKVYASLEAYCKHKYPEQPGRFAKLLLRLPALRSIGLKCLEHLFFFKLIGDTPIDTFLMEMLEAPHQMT
UniProt P41212: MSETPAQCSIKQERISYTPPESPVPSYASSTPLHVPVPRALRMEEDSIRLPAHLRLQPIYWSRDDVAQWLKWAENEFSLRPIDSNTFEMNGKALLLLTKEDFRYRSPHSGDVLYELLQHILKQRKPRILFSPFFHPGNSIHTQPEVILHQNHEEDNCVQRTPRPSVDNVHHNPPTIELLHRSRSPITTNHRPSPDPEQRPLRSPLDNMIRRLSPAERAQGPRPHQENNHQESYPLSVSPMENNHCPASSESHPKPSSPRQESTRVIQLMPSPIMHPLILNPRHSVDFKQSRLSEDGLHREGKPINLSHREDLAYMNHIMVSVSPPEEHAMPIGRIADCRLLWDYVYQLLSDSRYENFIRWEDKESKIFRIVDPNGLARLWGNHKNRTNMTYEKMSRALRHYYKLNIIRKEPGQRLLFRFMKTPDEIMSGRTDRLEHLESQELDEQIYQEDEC
UniProt Q15596: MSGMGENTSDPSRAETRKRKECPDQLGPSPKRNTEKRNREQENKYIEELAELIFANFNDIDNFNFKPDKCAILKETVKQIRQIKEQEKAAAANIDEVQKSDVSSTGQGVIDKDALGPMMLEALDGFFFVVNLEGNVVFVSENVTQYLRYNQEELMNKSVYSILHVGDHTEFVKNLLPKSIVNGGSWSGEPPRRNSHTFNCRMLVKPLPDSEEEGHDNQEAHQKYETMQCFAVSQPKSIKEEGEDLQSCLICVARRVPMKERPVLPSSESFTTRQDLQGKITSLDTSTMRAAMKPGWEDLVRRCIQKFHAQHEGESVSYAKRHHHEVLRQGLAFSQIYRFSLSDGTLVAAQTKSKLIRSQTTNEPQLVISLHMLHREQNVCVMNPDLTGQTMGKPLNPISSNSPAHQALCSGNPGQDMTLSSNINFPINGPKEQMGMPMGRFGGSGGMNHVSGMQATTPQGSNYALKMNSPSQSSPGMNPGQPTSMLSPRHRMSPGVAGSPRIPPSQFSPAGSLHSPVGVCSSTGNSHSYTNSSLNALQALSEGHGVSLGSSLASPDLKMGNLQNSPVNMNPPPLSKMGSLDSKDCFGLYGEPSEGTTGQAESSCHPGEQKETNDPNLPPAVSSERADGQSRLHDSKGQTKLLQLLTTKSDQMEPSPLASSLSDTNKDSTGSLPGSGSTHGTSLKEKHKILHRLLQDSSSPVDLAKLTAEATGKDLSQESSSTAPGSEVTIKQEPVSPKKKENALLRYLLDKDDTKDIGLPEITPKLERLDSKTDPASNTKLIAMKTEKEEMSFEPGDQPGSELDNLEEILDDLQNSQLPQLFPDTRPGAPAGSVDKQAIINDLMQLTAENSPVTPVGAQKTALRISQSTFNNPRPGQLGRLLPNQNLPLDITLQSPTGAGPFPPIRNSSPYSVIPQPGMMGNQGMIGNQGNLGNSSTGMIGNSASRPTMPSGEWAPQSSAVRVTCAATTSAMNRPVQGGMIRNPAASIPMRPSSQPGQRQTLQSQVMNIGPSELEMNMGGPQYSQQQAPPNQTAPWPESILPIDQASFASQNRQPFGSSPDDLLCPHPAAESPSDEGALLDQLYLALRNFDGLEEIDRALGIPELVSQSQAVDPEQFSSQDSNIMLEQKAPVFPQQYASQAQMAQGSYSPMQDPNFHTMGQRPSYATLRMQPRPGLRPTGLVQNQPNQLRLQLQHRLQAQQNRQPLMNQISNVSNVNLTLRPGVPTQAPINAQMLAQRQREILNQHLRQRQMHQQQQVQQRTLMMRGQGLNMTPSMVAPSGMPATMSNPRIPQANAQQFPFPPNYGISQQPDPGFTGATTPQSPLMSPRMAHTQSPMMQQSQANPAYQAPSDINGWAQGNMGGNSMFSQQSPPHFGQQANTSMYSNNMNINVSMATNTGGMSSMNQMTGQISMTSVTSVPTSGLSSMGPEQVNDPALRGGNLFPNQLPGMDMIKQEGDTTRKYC

Results are given in words; binding and its absence hold for the method and conditions named. In cells and extracts the contact can be indirect. Some results given as binding are weak or reduced against the parent protein; the word gives no strength.

The assay deals with GST-RXRα (UniProt P19793). Kind of assay: pull-down; GST fusion proteins from E. coli loaded on glutathione sepharose beads; 35S-methionine-labelled in vitro transcription/translation products; bound products eluted by boiling, SDS-PAGE, autoradiography; beads with non-fused GST as control; only the target purified.
As for “TEL (ETV6), larger isoform starting at methionine 1 (from UniProt P41212 1-452)”, the binding entry is on record as “binds”.
For “TEL (ETV6), shorter isoform starting at methionine 43 (from UniProt P41212 43-452)”, the binding result is recorded as “binds”.
Turning to TIF2 (from UniProt Q15596 1-1464), the binding entry is “no binding”.
